Measurements from publication doi:10.1101/2024.08.01.24310552.
Results are given in words; binding and its absence hold for the method and conditions named. In cells and extracts the contact can be indirect. A yes stands for co-enrichment or nearness to the bait. Other partners may have been found. No binding means not detected with the bait.

Sequences of proteins named here, by UniProt entry; tags and fusion partners are left off.
UniProt O14980: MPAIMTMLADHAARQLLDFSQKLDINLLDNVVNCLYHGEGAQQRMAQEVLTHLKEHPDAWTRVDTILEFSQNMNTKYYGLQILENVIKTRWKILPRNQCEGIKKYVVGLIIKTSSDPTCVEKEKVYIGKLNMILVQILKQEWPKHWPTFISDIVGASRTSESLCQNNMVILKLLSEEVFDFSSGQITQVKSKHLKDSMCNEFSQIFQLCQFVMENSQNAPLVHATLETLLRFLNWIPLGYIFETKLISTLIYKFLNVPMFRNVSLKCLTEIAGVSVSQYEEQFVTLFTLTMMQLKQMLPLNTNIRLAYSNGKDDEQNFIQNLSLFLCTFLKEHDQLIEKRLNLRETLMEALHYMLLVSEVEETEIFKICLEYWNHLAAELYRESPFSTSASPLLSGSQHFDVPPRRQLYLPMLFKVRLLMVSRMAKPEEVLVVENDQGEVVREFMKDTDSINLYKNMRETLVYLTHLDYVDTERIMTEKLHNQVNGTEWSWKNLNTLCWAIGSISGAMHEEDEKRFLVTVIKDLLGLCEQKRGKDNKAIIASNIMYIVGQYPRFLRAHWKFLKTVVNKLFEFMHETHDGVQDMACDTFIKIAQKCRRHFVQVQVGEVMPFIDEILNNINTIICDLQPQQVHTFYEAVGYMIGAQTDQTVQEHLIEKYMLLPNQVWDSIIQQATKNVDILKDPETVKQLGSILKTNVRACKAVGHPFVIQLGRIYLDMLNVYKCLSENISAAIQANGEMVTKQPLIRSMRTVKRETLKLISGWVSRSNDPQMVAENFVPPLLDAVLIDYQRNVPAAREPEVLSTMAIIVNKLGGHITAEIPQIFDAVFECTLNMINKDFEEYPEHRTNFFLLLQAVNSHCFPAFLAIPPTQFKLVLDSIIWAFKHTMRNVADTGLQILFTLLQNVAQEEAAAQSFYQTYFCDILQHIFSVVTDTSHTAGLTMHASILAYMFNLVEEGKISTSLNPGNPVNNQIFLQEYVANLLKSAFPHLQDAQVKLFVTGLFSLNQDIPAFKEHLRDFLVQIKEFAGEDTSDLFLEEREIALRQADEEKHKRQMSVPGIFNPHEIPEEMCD

T1: NXT2 (native protein pulled down from adult human testis) (human (endogenous in adult testis)) (UniProt Q9NPJ8)
T1 sequence: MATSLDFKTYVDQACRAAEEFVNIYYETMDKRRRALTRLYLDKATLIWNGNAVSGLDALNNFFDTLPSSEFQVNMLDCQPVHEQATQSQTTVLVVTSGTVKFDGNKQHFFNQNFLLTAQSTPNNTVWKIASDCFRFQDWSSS


Each molecule was assayed against T1, NXT2 (native protein pulled down from adult human testis) (human (endogenous in adult testis)) (assay: affinity purification with mass spectrometry).

Molecule	binding
XPO1 (from UniProt O14980 1-1071)	no binding

Target: T1, NXT2 (native protein pulled down from adult human testis) (human (endogenous in adult testis))
Assay: affinity purification with mass spectrometry
Remark: another data set of the same source

Molecule	binding
NUP93 (protein, UniProt Q8N1F7 1-819) MDTEGFGELLQQAEQLAAETEGISELPHVERNLQEIQQAGERLRSRTLTRTSQETADVKASVLLGSRGLDISHISQRLESLSAATTFEPLEPVKDTDIQGFLKNEKDNALLSAIEESRKRTFGMAEEYHRESMLVEWEQVKQRILHTLLASGEDALDFTQESEPSYISDVGPPGRSSLDNIEMAYARQIYIYNEKIVNGHLQPNLVDLCASVAELDDKSISDMWTMVKQMTDVLLTPATDALKNRSSVEVRMEFVRQALAYLEQSYKNYTLVTVFGNLHQAQLGGVPGTYQLVRSFLNIKLPAPLPGLQDGEVEGHPVWALIYYCMRCGDLLAASQVVNRAQHQLGEFKTWFQEYMNSKDRRLSPATENKLRLHYRRALRNNTDPYKRAVYCIIGRCDVTDNQSEVADKTEDYLWLKLNQVCFDDDGTSSPQDRLTLSQFQKQLLEDYGESHFTVNQQPFLYFQVLFLTAQFEAAVAFLFRMERLRCHAVHVALVLFELKLLLKSSGQSAQLLSHEPGDPPCLRRLNFVRLLMLYTRKFESTDPREALQYFYFLRDEKDSQGENMFLRCVSELVIESREFDMILGKLENDGSRKPGVIDKFTSDTKPIINKVASVAENKGLFEEAAKLYDLAKNADKVLELMNKLLSPVVPQISAPQSNKERLKNMALSIAERYRAQGISANKFVDSTFYLLLDLITFFDEYHSGHIDRAFDIIERLKLVPLNQESVEERVAAFRNFSDEIRHNLSEVLLATMNILFTQFKRLKGTSPSSSSRPQRVIEDRDSQLRSQARTLITFAGMIPYRTSGDTNARLVQMEVLMN	binds
SPATA5L1 (protein, UniProt Q9BVQ7 1-753) MAPDSDPFPEGPLLKLLPLDARDRGTQRCRLGPAALHALGARLGSAVKISLPDGGSCLCTAWPRRDGADGFVQLDPLCASPGAAVGASRSRRSLSLNRLLLVPCPPLRRVAVWPVLRERAGAPGARNTAAVLEAAQELLRNRPISLGHVVVAPPGAPGLVAALHIVGGTPSPDPAGLVTPRTRVSLGGEPPSEAQPQPEVPLGGLSEAADSLRELLRLPLRYPRALTALGLAVPRGVLLAGPPGVGKTQLVRAVAREAGAELLAVSAPALQGSRPGETEENVRRVFQRARELASRGPSLLFLDEMDALCPQRGSRAPESRVVAQVLTLLDGASGDREVVVVGATNRPDALDPALRRPGRFDREVVIGTPTLKQRKEILQVITSKMPISSHVDLGLLAEMTVGYVGADLTALCREAAMHALLHSEKNQDNPVIDEIDFLEAFKNIQPSSFRSVIGLMDIKPVDWEEIGGLEDVKLKLKQSIEWPLKFPWEFVRMGLTQPKGVLLYGPPGCAKTTLVRALATSCHCSFVSVSGADLFSPFVGDSEKVLSQIFRQARASTPAILFLDEIDSILGARSASKTGCDVQERVLSVLLNELDGVGLKTIERRGSKSSQQEFQEVFNRSVMIIAATNRPDVLDTALLRPGRLDKIIYIPPPDHKGRLSILKVCTKTMPIGPDVSLENLAAETCFFSGADLRNLCTEAALLALQENGLDATTVKQEHFLKSLKTVKPSLSCKDLALYENLFKKEGFSNVEGI	binds
NXF3 (endogenous, testis) (protein, UniProt Q9H4D5 1-531) MSLPSGHTTGHTDQVVQRRARCWDIYQRRFSSRSEPVNPGMHSSSHQQQDGDAAMHGAHMDSPVRYTPYTISPYNRKGSFRKQDQTHVNMEREQKPPERRMEGNMPDGTLGSWFKITVPFGIKYNEKWLLNLIQNECSVPFVPVEFHYENMHASFFVENASIAYALKNVSGKIWDEDNEKISIFVNPAGIPHFVHRELKSEKVEQIKLAMNQQCDVSQEALDIQRLPFYPDMVNRDTKMASNPRKCMAASLDVHEENIPTVMSAGEMDKWKGIEPGEKCADRSPVCTTFSDTSSNINSILELFPKLLCLDGQQSPRATLCGTEAHKRLPTCKGSFFGSEMLKNLVLQFLQQYYLIYDSGDRQGLLSAYHDEACFSLSIPFNPEDSAPSSFCKFFKDSRNIKILKDPYLRGELLKHTKLDIVDSLSALPKTQHDLSSFLVDMWYQTEWMLCFSVNGVFKEVEGQSQGSVLAFTRTFIATPGSSSSLCIVNDKLFVRDTSHQGTQSALFTLVPTAFSSSVPAFSQEQQKMLPS	binds
NXF2 (endogenous, testis) (protein, UniProt Q9GZY0 1-626) MCSTLKKCGTYRTEVAECHDHGSTFQGRKKGGSSFRDNFDKRSCHYEHGGYERPPSHCQENDGSVEMRDVHKDQQLRHTPYSIRCERRMKWHSEDEIRITTWRNRKPPERKMSQNTQDGYTRNWFKVTIPYGIKYDKAWLMNSIQSHCSDRFTPVDFHYVRNRACFFVQDASAASALKDVSYKIYDDENQKICIFVNHSTAPYSVKNKLKPGQMEMLKLTMNKRYNVSQQALDLQNLRFDPDLMGRDIDIILNRRNCMAATLKIIERNFPELLSLNLCNNKLYQLDGLSDITEKAPKVKTLNLSKNKLESAWELGKVKGLKLEELWLEGNPLCSTFSDQSAYVSAIRDCFPKLLRLDGRELSAPVIVDIDSSETMKPCKENFTGSETLKHLVLQFLQQYYSIYDSGDRQGLLGAYHDEACFSLAIPFDPKDSAPSSLCKYFEDSRNMKTLKDPYLKGELLRRTKRDIVDSLSALPKTQHDLSSILVDVWCQTERMLCFSVNGVFKEVEGQSQGSVLAFTRTFIATPGSSSSLCIVNDELFVRDASPQETQSAFSIPVSTLSSSSEPSLSQEQQEMVQAFSAQSGMKLEWSQKCLQDNEWNYTRAGQAFTMLQTEGKIPAEAFKQIS	binds
NXT1 (protein, UniProt Q9UKK6 1-140) MASVDFKTYVDQACRAAEEFVNVYYTTMDKRRRLLSRLYMGTATLVWNGNAVSGQESLSEFFEMLPSSEFQISVVDCQPVHDEATPSQTTVLVVICGSVKFEGNKQRDFNQNFILTAQASPSNTVWKIASDCFRFQDWAS	no binding
SPATA5 (protein, UniProt Q8NB90 1-893) MSSKKNRKRLNQSAENGSSLPSAASSCAEARAPSAGSDFAATSGTLTVTNLLEKVDDKIPKTFQNSLIHLGLNTMKSANICIGRPVLLTSLNGKQEVYTAWPMAGFPGGKVGLSEMAQKNVGVRPGDAIQVQPLVGAVLQAEEMDVALSDKDMEINEEELTGCILRKLDGKIVLPGNFLYCTFYGRPYKLQVLRVKGADGMILGGPQSDSDTDAQRMAFEQSSMETSSLELSLQLSQLDLEDTQIPTSRSTPYKPIDDRITNKASDVLLDVTQSPGDGSGLMLEEVTGLKCNFESAREGNEQLTEEERLLKFSIGAKCNTDTFYFISSTTRVNFTEIDKNSKEQDNQFKVTYDMIGGLSSQLKAIREIIELPLKQPELFKSYGIPAPRGVLLYGPPGTGKTMIARAVANEVGAYVSVINGPEIISKFYGETEAKLRQIFAEATLRHPSIIFIDELDALCPKREGAQNEVEKRVVASLLTLMDGIGSEVSEGQVLVLGATNRPHALDAALRRPGRFDKEIEIGVPNAQDRLDILQKLLRRVPHLLTEAELLQLANSAHGYVGADLKVLCNEAGLCALRRILKKQPNLPDVKVAGLVKITLKDFLQAMNDIRPSAMREIAIDVPNVSWSDIGGLESIKLKLEQAVEWPLKHPESFIRMGIQPPKGVLLYGPPGCSKTMIAKALANESGLNFLAIKGPELMNKYVGESERAVRETFRKARAVAPSIIFFDELDALAVERGSSLGAGNVADRVLAQLLTEMDGIEQLKDVTILAATNRPDRIDKALMRPGRIDRIIYVPLPDAATRREIFKLQFHSMPVSNEVDLDELILQTDAYSGAEIVAVCREAALLALEEDIQANLIMKRHFTQALSTVTPRIPESLRRFYEDYQEKSGLHTL	binds
